We go through 28 substances from PMC11740094 (RSC Medicinal Chemistry, 2024).

Strings that start with PEPTIDE1 are HELM notation: dots part the residues, brackets hold end groups and non-standard residues.

The first data set can be described thus: general procedure: Fmoc solid-phase peptide synthesis; Rink amide AM, 2-chlorotrityl chloride, preloaded Fmoc-Ile-Wang and Fmoc-Lys(Boc)-Wang resins; HBTU/DIPEA; HATU/DIPEA for palmitic acid and fragment coupling. The following applies: whole synthesis, analytical RP-HPLC, scale of the general procedure 0.05 mmol (Rink amide), 0.1 mmol (2-chlorotrityl).
With “PEPTIDE1{Y.G.R.K.K.R.R.Q.R.R.R.K.Q.I.E.I.K.K.F.K}$$$$V2.0”, the “final HPLC purity” value is above 99%.

The same data set, now with this note: whole synthesis, scale of the general procedure 0.05 mmol (Rink amide), 0.1 mmol (2-chlorotrityl).
“PEPTIDE1{Y.G.R.K.K.R.R.Q.R.R.R.K.Q.I.E.I.K.K.F.K}$$$$V2.0” returned an isolated yield of 34%.

Another data set can be described thus: peptide synthesis. The following applies: whole synthesis.
Consider “Ac-Ser-Arg-Pro-Arg-c[Azp -Asp-Asp-Leu-Glu-Pra]-Ahx-Lys(Fluorescein)-Ahx-Cys-Arg-Pro-Pro-Arg-NH2”, for which the “final HPLC purity” value was 95% and the isolated yield was 1%.
For H-RQPKIWFPNRRKPWKKRPRPDDLEI-OH, the “final HPLC purity” value is 95%.
On to PEPTIDE1{K.Q.I.E.I.K.K.F.K}$$$$V2.0, for which the “final HPLC purity” value is reported as 99% and the isolated yield is reported as 49%.
For PEPTIDE1{S.A.P.R.P.D.D.L.E.I}$$$$V2.0 the same measures were 99% and 22%.
For PEPTIDE1{S.R.A.R.A.D.D.L.E.I}$$$$V2.0 the same measures were above 99% and 19%.
Turning to PEPTIDE1{S.R.A.R.P.D.D.L.E.I}$$$$V2.0, the “final HPLC purity” value is listed as 99% and the isolated yield is on record as 20%.
For the substance PEPTIDE1{S.R.P.A.P.D.D.L.E.I}$$$$V2.0, the “final HPLC purity” value stood at 98% and the isolated yield came out at 44%.
In the case of PEPTIDE1{S.R.P.R.A.D.D.L.E.I}$$$$V2.0, the “final HPLC purity” value was above 99% and the isolated yield is reported as 48%.
With PEPTIDE1{S.R.P.R.P.A.D.L.E.I}$$$$V2.0, the “final HPLC purity” value is given as above 99% and the isolated yield is 23%.
For PEPTIDE1{S.R.P.R.P.D.A.L.E.I}$$$$V2.0, the “final HPLC purity” value is listed as above 99% and the isolated yield was 42%.
Turning to PEPTIDE1{S.R.P.R.P.D.D.L.A.I}$$$$V2.0, the “final HPLC purity” value was 99% and the isolated yield is reported as 13%.
Regarding “PEPTIDE1{S.R.P.R.P.D.D.L.E.I.[am]}$$$$V2.0”, the “final HPLC purity” value stood at 99% and the isolated yield came out at 16%.
Turning to PEPTIDE1{S.R.P.R.P.D.D.L.E.I}$$$$V2.0, the “final HPLC purity” value is above 99% and the isolated yield stood at 55%.
Taken in the same sequence, the figures for PEPTIDE1{S.R.P.T.E.K.T.I.F.I.I}$$$$V2.0 were above 99% and 49%.
For the substance “PEPTIDE1{[KeP].S.R.P.R.P.D.D.L.E.I}$$$$V2.0”, the “final HPLC purity” value was determined as 98% and the isolated yield was 11%.
For the substance “PEPTIDE1{[KeP].S.R.P.R.[AzpT].D.D.L.E.[PraT].[am]}$PEPTIDE1,PEPTIDE1,6:R3-11:R3$$$V2.0”, the “final HPLC purity” value is 98% and the isolated yield was determined as 4%.
Taken in the same sequence, the figures for “PEPTIDE1{[KeP].[AEEA].S.R.P.R.P.D.D.L.E.I}$$$$V2.0” were 98% and 6%.
For the substance “PEPTIDE1{[ac].S.R.P.R.P.D.D.L.E.I}$$$$V2.0”, the “final HPLC purity” value was above 99% and the isolated yield is reported as 77%.
Take “PEPTIDE1{[ac].S.R.P.R.[AzpT].D.D.L.E.[PraT].[am]}$PEPTIDE1,PEPTIDE1,6:R3-11:R3$$$V2.0”: the “final HPLC purity” value came out at 99% and the isolated yield turned out to be 14%.
“PEPTIDE1{[ac].S.R.P.R.[AzpT].D.D.[PraT].E.I.[am]}$PEPTIDE1,PEPTIDE1,6:R3-9:R3$$$V2.0”: the “final HPLC purity” value is reported as above 99% and the isolated yield was 9%.
Turning to “PEPTIDE1{[ac].S.R.P.R.[PraT].D.D.L.E.[AzkT].[am]}$PEPTIDE1,PEPTIDE1,6:R3-11:R3$$$V2.0”, the “final HPLC purity” value is given as above 99% and the isolated yield is 9%.
Regarding “PEPTIDE1{[ac].[PraT].R.P.R.[AzkT].D.D.L.E.I.[am]}$PEPTIDE1,PEPTIDE1,2:R3-6:R3$$$V2.0”, the “final HPLC purity” value is 95% and the isolated yield came out at 4%.
Consider “PEPTIDE1{[palm].K.Q.I.E.I.K.K.F.K}$$$$V2.0”, for which the “final HPLC purity” value is above 99% and the isolated yield was found to be 31%.
For the substance “PEPTIDE1{[palm].K.S.R.P.R.P.D.D.L.E.I}$$$$V2.0”, the “final HPLC purity” value worked out at 98% and the isolated yield is on record as 24%.
For “PEPTIDE1{[palm].S.R.P.R.P.D.D.L.E.I}$$$$V2.0” the same measures were 99% and 26%.
In the case of “Palm-εLys-Ser-Arg-Pro-Arg-c[Azp -Asp-Asp-Leu-Glu-Pra]-Ahx-Lys(Fluorescein)-Ahx-Cys-Arg-Pro-Pro-Arg-NH2”, the “final HPLC purity” value is listed as 95% and the isolated yield is recorded as 2%.
As for “Palm-εLys-Ser-Arg-Pro-Arg-c[Azp -Asp-Asp-Leu-Glu-Pra]-Ahx-Lys(Fluorescein)-NH2”, the “final HPLC purity” value was determined as 96% and the isolated yield was determined as 2%.

Still in this data set, the particulars now being: whole synthesis, TFA salt.
On to H-RQPKIWFPNRRKPWKKRPRPDDLEI-OH, for which the isolated yield stood at 17%.
